Results are given in words; binding and its absence hold for the method and conditions named. Some entries that bind do so weakly or less than the wild type.
Experiments:
[1] = biological target: STAT3 protein (UniProt P40763); experiment: phage ELISA, absorbance at 450 nm
[2] = biological target: STAT3 protein (UniProt P40763); experiment: phage ELISA on STAT3 and other proteins
[3] = biological target: Human MyD88 (Santa Cruz Biotechnology sc-4540 WB) (human) (UniProt Q99836); experiment: phage ELISA on a panel of coated proteins
[4] = biological target: Human MyD88 (Santa Cruz Biotechnology sc-4540 WB) (human) (UniProt Q99836); experiment: phage ELISA: clones with higher absorbance than on BSA, sequenced
[5] = biological target: STAT3 protein (UniProt P40763); experiment: SPR (Biacore X), STAT3 on CM5 chip, peptide at 2, 5 and 7.5 µM according to the text
[6] = biological target: Human MyD88 (Santa Cruz Biotechnology sc-4540 WB) (human) (UniProt Q99836); experiment: phage ELISA on a panel of coated proteins, anti-M13-HRP
[7] = biological target: Human MyD88 (Santa Cruz Biotechnology sc-4540 WB) (human) (UniProt Q99836); experiment: phage ELISA, absorbance at 450 nm

Sequences of proteins named here, by UniProt entry; tags and fusion partners are left off.
UniProt P40763: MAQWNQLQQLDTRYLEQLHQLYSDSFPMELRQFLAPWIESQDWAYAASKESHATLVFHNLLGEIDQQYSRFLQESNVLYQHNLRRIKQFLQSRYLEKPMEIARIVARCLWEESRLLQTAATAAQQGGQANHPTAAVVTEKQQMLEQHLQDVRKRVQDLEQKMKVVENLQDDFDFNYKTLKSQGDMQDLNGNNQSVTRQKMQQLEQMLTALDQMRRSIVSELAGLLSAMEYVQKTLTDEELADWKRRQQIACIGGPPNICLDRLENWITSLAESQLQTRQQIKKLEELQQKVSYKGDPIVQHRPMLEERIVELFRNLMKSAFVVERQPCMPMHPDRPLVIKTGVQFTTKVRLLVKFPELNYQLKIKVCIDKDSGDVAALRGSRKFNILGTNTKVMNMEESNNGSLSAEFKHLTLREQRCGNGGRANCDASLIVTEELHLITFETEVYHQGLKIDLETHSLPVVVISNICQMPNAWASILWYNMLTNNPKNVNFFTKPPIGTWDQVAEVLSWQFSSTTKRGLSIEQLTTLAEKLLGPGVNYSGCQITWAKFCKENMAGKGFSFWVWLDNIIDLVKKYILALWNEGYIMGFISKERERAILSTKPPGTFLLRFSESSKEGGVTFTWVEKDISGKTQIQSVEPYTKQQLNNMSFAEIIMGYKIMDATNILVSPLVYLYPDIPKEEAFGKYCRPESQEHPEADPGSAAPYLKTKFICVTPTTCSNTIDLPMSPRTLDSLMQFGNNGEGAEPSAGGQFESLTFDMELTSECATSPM
UniProt Q99836: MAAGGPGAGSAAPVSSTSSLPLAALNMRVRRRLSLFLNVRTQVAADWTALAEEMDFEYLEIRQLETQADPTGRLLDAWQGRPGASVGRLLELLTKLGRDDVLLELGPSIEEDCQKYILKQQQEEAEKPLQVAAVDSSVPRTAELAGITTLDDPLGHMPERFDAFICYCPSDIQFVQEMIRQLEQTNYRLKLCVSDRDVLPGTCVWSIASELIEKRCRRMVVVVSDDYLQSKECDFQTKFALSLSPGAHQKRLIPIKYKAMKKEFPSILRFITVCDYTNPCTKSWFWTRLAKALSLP

| binding [1] | binding [2] | binding [3] | binding [4] | binding [5] | binding [6] | binding [7] | Binder |
| --- | --- | --- | --- | --- | --- | --- | --- |
| binds | binds |  |  |  |  |  | HGFQWPGSWTWENGKWTWKGAYQFLK [STAT3-specific bipodal-peptide binder Peptide 2] |
|  |  | binds | binds |  |  |  | ASTINFGSWTWENGKWTWKGYTRRWN [Peptide 2 specific to MyD88 (Table 3f), bipodal-peptide binder] |
| binds | binds |  |  | binds |  |  | QAYYIPGSWTWENGKWTWKGLWGPEF [STAT3-specific bipodal-peptide binder Peptide 1] |
|  |  | binds | binds |  | binds | binds | HSHAFYGSWTWENGKWTWKGNPGWWT [Peptide 1 specific to MyD88 (Table 3f), bipodal-peptide binder] |

Source: US20120309934A1, “INTRACELLUAR TARGETING BIPODAL PEPTIDE BINDER” (priority 2009, published 2012)
